In publication PMC3257278:
Results are given in words; binding and its absence hold for the method and conditions named. Binding seen in cells or lysates may run through a third protein. Some results given as binding are weak or reduced against the parent protein; the word gives no strength. Tags and fused reporters may be left off the sequences shown.

Protein sequences, listed by entry. Tags and fused reporters are not part of them. Residues count along the entry.
UniProt O22476, residues 24-1196: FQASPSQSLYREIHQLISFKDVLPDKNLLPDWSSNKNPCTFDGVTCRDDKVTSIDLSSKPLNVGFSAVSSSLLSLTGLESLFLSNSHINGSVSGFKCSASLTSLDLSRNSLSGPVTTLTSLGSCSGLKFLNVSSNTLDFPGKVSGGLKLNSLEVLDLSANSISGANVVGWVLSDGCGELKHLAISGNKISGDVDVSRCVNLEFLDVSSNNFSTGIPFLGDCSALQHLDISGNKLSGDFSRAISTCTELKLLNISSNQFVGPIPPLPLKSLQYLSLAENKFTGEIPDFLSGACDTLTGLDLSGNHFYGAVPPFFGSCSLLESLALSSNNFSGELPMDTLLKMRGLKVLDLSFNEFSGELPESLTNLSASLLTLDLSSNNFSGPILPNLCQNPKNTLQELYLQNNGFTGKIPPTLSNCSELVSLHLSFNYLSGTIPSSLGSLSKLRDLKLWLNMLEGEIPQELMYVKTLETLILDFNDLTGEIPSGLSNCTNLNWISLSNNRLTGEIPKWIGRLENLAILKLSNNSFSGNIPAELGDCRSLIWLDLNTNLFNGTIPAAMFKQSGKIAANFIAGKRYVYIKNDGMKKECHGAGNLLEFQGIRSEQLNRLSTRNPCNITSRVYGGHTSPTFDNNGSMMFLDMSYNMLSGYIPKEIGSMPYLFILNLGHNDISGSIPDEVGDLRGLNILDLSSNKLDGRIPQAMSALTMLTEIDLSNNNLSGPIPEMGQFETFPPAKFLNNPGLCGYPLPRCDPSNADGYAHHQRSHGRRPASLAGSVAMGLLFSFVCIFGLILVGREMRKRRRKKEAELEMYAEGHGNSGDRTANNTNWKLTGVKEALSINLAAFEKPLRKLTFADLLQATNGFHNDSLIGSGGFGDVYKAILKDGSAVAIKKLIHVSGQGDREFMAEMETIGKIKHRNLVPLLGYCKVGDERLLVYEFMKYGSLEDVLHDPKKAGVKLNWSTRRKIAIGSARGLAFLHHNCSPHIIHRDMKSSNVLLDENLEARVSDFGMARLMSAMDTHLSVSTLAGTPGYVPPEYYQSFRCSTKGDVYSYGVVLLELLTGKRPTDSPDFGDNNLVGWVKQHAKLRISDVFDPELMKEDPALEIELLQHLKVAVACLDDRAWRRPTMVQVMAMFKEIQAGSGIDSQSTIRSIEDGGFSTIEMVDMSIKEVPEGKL

Molecular target: BRI1-FLAG (Brassinosteroid Insensitive 1) (Arabidopsis thaliana) (UniProt O22476)
Experiment: co-IP; solubilized membrane protein from 11-day-old liquid-cultured transgenic Arabidopsis seedlings (35S::SERK2-GFP and 35S::BRI1-FLAG), treated with or without 24-epiBL for 90 min; BRI1-FLAG immunoprecipitated with agarose-linked anti-FLAG antibody; Western with anti-GFP and anti-FLAG

binding: binds weakly
B1: SERK2-GFP (Somatic Embryogenesis Receptor Kinase 2) (receptor, UniProt Q9XIC7 30-628)
chain: NMEGDALHSLRANLVDPNNVLQSWDPTLVNPCTWFHVTCNNENSVIRVDLGNADLSGQLVPQLGQLKNLQYLELYSNNITGPVPSDLGNLTNLVSLDLYLNSFTGPIPDSLGKLFKLRFLRLNNNSLTGPIPMSLTNIMTLQVLDLSNNRLSGSVPDNGSFSLFTPISFANNLDLCGPVTSRPCPGSPPFSPPPPFIPPPIVPTPGGYSATGAIAGGVAAGAALLFAAPALAFAWWRRRKPQEFFFDVPAEEDPEVHLGQLKRFSLRELQVATDSFSNKNILGRGGFGKVYKGRLADGTLVAVKRLKEERTPGGELQFQTEVEMISMAVHRNLLRLRGFCMTPTERLLVYPYMANGSVASCLRERPPSQLPLAWSIRQQIALGSARGLSYLHDHCDPKIIHRDVKAANILLDEEFEAVVGDFGLARLMDYKDTHVTTAVRGTIGHIAPEYLSTGKSSEKTDVFGYGIMLLELITGQRAFDLARLANDDDVMLLDWVKGLLKEKKLEMLVDPDLQSNYTEAEVEQLIQVALLCTQSSPMERPKMSEVVRMLEGDGLAEKWDEWQKVEVLRQEVELSSHPTSDWILDSTDNLHAMELSGPR
